Chains of the proteins cited; added tags and fusions are not shown. Residues count along the entry.
UniProt O95398, residues 43-923: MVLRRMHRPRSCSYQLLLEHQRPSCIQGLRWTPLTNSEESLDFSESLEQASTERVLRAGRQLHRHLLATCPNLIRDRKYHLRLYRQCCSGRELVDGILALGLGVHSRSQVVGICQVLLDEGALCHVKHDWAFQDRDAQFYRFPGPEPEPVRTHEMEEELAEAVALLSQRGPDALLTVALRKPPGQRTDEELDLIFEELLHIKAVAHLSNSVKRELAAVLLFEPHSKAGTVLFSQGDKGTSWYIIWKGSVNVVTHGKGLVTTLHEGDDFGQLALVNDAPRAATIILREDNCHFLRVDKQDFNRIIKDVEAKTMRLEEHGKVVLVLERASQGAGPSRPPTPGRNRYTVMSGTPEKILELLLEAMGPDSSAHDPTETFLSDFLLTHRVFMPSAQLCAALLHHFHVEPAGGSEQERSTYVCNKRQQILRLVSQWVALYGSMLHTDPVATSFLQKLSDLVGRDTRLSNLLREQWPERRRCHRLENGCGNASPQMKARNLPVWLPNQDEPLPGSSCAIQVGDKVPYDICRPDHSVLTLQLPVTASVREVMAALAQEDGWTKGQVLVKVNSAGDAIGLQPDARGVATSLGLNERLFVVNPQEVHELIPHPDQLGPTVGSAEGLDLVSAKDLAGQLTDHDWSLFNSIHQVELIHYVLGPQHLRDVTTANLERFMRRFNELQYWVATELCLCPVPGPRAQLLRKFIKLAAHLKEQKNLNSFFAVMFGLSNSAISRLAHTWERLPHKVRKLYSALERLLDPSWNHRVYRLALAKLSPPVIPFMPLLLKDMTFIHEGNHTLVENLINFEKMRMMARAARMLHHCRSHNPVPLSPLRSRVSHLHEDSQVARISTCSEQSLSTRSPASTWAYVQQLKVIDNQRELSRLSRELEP
UniProt P0DMV8: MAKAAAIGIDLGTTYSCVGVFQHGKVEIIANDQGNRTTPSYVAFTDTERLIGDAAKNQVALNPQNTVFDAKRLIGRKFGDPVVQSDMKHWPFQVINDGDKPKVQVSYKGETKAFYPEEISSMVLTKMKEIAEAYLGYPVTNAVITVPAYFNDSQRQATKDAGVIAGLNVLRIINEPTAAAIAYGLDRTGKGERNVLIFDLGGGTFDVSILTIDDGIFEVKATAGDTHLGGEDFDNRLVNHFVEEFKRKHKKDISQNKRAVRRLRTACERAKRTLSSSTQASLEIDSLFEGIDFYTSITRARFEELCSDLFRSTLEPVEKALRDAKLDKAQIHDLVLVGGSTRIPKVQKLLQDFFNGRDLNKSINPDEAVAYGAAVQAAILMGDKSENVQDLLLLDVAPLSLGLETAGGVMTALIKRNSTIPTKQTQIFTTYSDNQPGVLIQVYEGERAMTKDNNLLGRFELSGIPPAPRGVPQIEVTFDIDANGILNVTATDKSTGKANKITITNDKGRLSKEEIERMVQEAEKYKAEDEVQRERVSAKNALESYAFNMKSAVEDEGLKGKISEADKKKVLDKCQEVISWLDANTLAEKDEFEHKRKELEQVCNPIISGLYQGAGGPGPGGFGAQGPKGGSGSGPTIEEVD
UniProt P54652: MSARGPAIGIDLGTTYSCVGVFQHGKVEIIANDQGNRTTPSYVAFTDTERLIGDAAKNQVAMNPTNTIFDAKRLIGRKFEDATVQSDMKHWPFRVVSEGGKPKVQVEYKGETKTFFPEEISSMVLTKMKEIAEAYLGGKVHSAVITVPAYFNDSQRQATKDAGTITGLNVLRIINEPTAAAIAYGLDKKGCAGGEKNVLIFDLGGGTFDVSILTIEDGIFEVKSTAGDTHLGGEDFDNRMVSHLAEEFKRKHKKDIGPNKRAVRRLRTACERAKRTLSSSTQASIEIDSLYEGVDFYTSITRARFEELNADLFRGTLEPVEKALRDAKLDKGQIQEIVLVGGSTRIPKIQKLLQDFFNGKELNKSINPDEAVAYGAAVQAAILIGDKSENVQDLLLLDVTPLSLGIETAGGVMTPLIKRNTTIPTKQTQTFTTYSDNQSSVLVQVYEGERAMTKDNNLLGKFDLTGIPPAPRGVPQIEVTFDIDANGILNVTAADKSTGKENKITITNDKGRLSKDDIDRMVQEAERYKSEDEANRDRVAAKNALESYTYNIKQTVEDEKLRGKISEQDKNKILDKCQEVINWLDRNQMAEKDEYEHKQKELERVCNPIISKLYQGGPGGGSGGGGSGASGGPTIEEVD
UniProt P08238: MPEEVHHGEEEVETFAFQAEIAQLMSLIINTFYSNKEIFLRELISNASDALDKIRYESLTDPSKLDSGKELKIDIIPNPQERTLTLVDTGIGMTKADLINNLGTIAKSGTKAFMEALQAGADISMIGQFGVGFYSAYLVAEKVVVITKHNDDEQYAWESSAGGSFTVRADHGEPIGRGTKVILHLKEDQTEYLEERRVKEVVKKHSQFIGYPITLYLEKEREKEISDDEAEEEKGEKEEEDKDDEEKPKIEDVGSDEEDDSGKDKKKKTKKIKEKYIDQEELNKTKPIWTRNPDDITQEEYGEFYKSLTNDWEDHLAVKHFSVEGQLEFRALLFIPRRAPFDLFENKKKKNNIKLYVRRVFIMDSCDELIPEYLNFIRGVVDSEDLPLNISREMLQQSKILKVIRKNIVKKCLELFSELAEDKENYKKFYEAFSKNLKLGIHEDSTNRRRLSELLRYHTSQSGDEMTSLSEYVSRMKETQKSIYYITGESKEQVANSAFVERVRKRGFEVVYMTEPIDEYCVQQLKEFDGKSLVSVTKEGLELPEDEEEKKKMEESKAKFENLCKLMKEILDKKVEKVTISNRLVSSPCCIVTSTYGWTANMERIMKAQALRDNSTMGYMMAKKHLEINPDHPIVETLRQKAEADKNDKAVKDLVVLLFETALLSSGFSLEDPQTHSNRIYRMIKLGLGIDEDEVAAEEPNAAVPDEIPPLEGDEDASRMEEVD
UniProt Q14974: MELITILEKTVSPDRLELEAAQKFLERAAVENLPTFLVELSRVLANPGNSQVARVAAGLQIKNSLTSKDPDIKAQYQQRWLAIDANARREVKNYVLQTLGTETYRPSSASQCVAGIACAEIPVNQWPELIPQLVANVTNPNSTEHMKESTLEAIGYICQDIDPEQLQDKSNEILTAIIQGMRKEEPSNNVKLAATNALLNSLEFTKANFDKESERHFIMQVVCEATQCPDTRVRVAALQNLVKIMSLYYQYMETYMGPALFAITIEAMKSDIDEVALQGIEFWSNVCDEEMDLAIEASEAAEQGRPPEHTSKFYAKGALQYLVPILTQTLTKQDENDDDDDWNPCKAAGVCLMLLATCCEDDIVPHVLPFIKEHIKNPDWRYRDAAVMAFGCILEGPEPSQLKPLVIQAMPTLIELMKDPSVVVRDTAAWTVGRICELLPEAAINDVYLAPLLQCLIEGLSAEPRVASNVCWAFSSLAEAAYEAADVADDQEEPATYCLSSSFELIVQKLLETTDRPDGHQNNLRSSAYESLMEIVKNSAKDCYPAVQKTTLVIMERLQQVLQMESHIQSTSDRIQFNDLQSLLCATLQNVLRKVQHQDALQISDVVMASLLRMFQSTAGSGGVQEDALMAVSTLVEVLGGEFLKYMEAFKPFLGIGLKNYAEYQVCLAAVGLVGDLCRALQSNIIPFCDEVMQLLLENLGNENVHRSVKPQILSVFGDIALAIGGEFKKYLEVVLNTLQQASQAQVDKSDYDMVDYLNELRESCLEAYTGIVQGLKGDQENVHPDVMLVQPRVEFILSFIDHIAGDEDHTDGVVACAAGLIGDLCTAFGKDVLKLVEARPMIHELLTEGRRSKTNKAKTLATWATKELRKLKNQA

In publication PMC5093460:

molecular target: YFP-Epac1 (exchange protein directly activated by cAMP-1), expressed in HEK293 cells (UniProt O95398); experiment: affinity purification with mass spectrometry; GFP-TRAP immunoprecipitation of YFP-Epac1 (GFP as control) from HEK293 lysate; SDS-PAGE, silver stain, bands between 72 and 120 kDa excised, trypsin, LC-MS/MS (Orbitrap Elite), Mascot search of Swiss-Prot

binding	Substance
binds	HSP70-1A, endogenous in HEK293 cells (from UniProt P0DMV8 1-641)
binds	HSP70-2, endogenous in HEK293 cells (from UniProt P54652 1-639)
binds	HSP90α, endogenous in HEK293 cells (from UniProt P07900 1-732)
binds	HSP90β, endogenous in HEK293 cells (from UniProt P08238 1-724)
binds	importin β1 (impβ1), endogenous in HEK293 cells (from UniProt Q14974 1-876)

These are yes or no findings as the source states them, for the method shown. Binding seen in cells or lysates may run through a third protein. A yes stands for co-enrichment or nearness to the bait. Other partners may have been found.
